From paper PMC8386835
No constants are given. Whether binding was seen depends on the method and setting. For some assays here: In cells and extracts the contact can be indirect. Where a sequence is shown, tags or fusion partners need not be part of it. Some results given as binding are weak or reduced against the parent protein; the word gives no strength. Values belong to the binder of their own block, whether it stands above or below them.

Chains of the proteins cited; added tags and fusions are not shown.
UniProt Q60972: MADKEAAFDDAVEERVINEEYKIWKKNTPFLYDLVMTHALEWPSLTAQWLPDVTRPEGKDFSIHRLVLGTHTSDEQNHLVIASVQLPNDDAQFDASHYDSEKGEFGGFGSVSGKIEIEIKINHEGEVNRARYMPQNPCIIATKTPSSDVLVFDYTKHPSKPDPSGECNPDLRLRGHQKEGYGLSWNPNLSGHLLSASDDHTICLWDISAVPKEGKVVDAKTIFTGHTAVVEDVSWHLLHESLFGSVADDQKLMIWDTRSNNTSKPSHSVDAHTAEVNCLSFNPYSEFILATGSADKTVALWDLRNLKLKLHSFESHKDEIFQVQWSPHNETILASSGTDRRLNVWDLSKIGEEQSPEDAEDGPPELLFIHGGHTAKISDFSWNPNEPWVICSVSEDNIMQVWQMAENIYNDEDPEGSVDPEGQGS

Columns and labels:
BD-RBBP4 (mouse) = BD-RBBP4 (mouse) (UniProt Q60972); experiment: two-hybrid; AD prey in Y187 mated with BD bait in AH109; growth on -LW, -LWH with 5 mM 3-AT and -LWHA plates at 30°C for 3-5 days
MYC-MTL5 (mouse) = biological target: T1, MYC-MTL5 (mouse) (UniProt Q9WTJ6); experiment: co-IP; HEK293T co-transfected with MYC-tagged MTL5 and GFP-tagged partner; NP-40 buffer lysate, Myc-Tag magnetic beads, overnight at 4°C; Western blot
T1 sequence: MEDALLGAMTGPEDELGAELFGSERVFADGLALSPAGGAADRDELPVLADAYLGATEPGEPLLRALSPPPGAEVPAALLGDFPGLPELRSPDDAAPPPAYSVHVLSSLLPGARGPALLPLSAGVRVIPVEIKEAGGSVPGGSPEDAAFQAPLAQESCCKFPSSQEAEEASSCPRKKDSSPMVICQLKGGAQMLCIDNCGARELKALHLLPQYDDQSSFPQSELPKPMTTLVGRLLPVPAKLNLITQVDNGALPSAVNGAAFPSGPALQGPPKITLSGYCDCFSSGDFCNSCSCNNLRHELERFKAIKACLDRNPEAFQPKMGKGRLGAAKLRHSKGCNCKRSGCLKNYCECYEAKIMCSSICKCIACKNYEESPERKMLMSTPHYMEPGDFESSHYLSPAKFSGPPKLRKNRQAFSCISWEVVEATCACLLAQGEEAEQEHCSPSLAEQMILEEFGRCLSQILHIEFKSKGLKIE

binding (BD-RBBP4 (mouse)): binds
B1: AD-MTL5 (protein, UniProt Q9WTJ6-1 1-475)
chain: T1 sequence

binding (MYC-MTL5 (mouse)): no binding
B2: GFP-LIN54 (protein, UniProt Q571G4 1-749)
chain: MEVVPAEVNSLLPDDIMDTAITLVDEDSIEAVIVSSPIPMETELEEIVNINSTGDSTATPISTEPITVYSNHTNQVAVNTTVSKADSNTTVKPAFPSGLQKLGAQTPVTISANQIILNKVSQTSDLKLGNQTLKPDGQKLILTTLGKSGSPIVLALPHSQLPQAQKVTAQAQPGDAKLPPQQIKVVTIGGRPEVKPVIGVSALTPGSQLINTTTQPSVLQTQQLKTVQIAKKPRTPTSGPVITKLIFAKPINSKAVTGQTTQASPPVVTGRVLSQSTPGTPSKTITISESGVIGSTLNSTTQTPNKIAISPLKSPNKTVKSAVQTITVGGMSTSQFKTIIPLATAPNVQQIQVPGSKFHYVRLVTATTASSSAQPVSQSPSVNTQPLQQAKPVVVNTTPVRMSVPFVQAQAVKQVVPKPINSTSQIVTTSQPQQRLIMPATPLPQIQPNLTNLPPGTVLAPAPGTGNVGYAVLPAQYVTQLQQSSYVSIASNSNFTGTSGIQTQARLPFNGIIPSESTSRPRKPCNCTKSLCLKLYCDCFANGEFCNNCNCTNCYNNLEHENERQKAIKACLDRNPEAFKPKIGKGKEGESDRRHSKGCNCKRSGCLKNYCECYEAKIMCSSICKCIGCKNFEESPERKTLMHLADAAEVRVQQQTAAKTKLSSQISDLLTRPTPALNSAGGKLPFTFVTKEVAEATCNCLLAQAEQADKKGKSKAAAERMILEEFGRCLMSVINSAGKAKSDPCAMHC
